The target in this experiment is HA-SpdyA (Speedy A with an HA tag knocked in at the endogenous Spdya gene) (mouse (endogenous in testis)) (UniProt Q5IBH7). Put plainly: co-IP; anti-HA agarose on 3 mg testis protein lysate of PD17 Spdya^HA/HA mice (Spdya^+/+ as control), EBN++ buffer (80 mM beta-glycerophosphate pH 7.3, 20 mM EGTA, 15 mM MgCl2, 150 mM NaCl, 1 mg/ml ovalbumin, 0.5% NP-40), 4 °C overnight; immunoblot. On the technique in general: A western blot detects proteins with antibodies after separation by electrophoresis.

These are yes or no findings as the source states them, for the method shown. Binding seen in cells or lysates may run through a third protein. Some binding calls cover weakened binding; strength is not graded here.

For “CDK2 (endogenous) (from UniProt P97377 1-346) (enzyme)”, the binding entry was “binds”.
